Assay results published in US9127027B2, “Epoxyeicosatrienoic acid analogs and methods of making and using the same” (The Medical College of Wisconsin, Inc., priority 2011, dated 2015).
At least one structure is not confirmed: it was looked up by name or label, or the drawing left a doubt.

Tested on: Hela, NCCIT and U87
Experiment: Cell viability (alamar blue) in cancer cell lines
Assay type: cell-based, human
Details: EET-A alone; 72 h

Structure (SMILES): CCCCCNC(=O)NCCCC/C=C\CCCCCCC(=O)NC(CC(=O)[O-])C(=O)[O-].[Na+].[Na+] [EET-A, Sodium (S)-2-(13-(3-pentylureido)tridec-8(Z)-enamido)succinate]
- effect on cell number: no observable effects on cell number
